Among the data in paper doi:10.1101/2022.06.26.497666 (bioRxiv, 2022) are binding values, retold here.

By UniProt entry, the sequences of proteins in these tests, tags left out.
UniProt Q9ULZ3: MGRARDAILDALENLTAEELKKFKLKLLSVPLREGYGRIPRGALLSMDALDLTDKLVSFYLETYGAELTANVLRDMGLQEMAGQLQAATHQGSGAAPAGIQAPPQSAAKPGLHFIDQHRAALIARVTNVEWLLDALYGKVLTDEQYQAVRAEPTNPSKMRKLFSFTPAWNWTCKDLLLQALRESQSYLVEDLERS

No constants are given. Whether binding was seen depends on the method and setting. In cells and extracts the contact can be indirect. Some entries that bind do so weakly or less than the wild type.

Holding throughout (assay): co-IP
Assay [1] has as its target T1, NLRP1 (wild-type full-length human NLRP1) (human) (UniProt Q9C000).
T1 sequence: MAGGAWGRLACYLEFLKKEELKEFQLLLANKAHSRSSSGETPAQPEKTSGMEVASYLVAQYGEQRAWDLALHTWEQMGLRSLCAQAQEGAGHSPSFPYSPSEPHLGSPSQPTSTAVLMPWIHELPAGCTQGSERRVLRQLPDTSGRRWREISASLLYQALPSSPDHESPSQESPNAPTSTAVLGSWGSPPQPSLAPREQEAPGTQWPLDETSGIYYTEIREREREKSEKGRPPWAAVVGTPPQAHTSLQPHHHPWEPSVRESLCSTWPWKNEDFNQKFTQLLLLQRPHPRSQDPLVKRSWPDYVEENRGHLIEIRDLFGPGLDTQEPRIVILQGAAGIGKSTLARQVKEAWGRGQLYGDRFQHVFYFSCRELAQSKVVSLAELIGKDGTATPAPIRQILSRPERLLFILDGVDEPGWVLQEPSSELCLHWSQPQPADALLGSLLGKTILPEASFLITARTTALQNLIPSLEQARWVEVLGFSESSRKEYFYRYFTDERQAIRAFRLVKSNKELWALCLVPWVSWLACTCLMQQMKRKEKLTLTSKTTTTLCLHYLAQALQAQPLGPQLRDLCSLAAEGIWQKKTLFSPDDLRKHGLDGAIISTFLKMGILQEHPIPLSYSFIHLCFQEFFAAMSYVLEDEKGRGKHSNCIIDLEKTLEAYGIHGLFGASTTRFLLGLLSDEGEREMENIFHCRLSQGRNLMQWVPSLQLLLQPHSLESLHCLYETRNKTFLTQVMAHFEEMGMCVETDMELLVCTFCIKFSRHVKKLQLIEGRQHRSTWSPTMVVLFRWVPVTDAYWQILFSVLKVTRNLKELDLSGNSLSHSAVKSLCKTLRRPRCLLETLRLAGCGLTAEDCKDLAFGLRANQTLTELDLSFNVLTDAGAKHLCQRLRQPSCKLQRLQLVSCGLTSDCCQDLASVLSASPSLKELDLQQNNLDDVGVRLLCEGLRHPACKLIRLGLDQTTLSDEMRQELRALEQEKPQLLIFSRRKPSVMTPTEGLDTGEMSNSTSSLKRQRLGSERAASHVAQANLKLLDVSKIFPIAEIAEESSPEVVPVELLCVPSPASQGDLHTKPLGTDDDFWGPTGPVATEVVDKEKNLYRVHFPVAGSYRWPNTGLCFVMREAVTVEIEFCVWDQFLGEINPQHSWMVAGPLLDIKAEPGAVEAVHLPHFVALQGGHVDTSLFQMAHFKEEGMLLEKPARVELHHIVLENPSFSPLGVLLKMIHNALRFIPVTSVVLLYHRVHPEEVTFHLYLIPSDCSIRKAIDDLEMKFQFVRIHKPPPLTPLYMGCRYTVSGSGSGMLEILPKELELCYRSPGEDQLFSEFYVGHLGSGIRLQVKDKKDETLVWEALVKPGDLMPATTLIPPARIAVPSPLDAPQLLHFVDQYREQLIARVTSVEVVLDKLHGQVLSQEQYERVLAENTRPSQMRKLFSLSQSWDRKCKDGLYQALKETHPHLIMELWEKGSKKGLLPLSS

The target in assay [2] is CARD8-T60 isoform (full-length) (human) (UniProt Q9Y2G2).
The target of assay [3] is T2, NLRP1 (wild-type full-length human NLRP1) (human), Q9C000.
T2 chain: T1 sequence
To be noted: remark: other sources report otherwise.

For assay [4], the target named is T3, NLRP1 FIIND domain (truncation mutant of NLRP1) (human) (UniProt Q9C000).
T3 sequence: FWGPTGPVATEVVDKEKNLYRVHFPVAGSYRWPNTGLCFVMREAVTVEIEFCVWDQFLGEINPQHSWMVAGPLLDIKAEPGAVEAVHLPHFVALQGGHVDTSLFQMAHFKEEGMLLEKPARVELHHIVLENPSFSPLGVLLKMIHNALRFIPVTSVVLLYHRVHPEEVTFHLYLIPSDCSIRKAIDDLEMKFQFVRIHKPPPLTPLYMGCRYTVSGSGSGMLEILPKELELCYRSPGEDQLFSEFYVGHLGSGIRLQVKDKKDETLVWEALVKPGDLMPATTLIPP

The target in assay [5] is T4, NLRP1 NACHT domain (truncation mutant of NLRP1) (human) (UniProt Q9C000).
T4 sequence: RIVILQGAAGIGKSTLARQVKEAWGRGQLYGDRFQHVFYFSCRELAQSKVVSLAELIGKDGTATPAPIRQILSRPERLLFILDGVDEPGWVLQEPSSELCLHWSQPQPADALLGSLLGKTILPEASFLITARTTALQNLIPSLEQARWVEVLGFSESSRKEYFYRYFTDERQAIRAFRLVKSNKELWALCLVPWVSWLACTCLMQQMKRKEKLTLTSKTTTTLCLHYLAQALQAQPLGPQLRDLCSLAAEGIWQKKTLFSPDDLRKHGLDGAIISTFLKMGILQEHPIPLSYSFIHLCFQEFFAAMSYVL

In the case of “CARD8-T48-Q152QA (from UniProt Q9Y2G2-1)”, the binding result in assay [1] is on record as “binds”.

Regarding ASC (from UniProt Q9ULZ3 1-195), the binding entry in assay [2] is recorded as “no binding”.

B1: CARD8-T48 isoform (wild-type full-length), Q9Y2G2-1 (protein)
chain: MMRQRQSHYCSVLFLSVNYLGGTFPGDICSEENQIVSSYASKVCFEIEEDYKNRQFLGPEGNVDVELIDKSTNRYSVWFPTAGWYLWSATGLGFLVRDEVTVTIAFGSWSQHLALDLQHHEQWLVGGPLFDVTAEPEEAVAEIHLPHFISLQGEVDVSWFLVAHFKNEGMVLEHPARVEPFYAVLESPSFSLMGILLRIASGTRLSIPITSNTLIYYHPHPEDIKFHLYLVPSDALLTKAIDDEEDRFHGVRLQTSPPMEPLNFGSSYIVSNSANLKVMPKELKLSYRSPGEIQHFSKFYAGQMKEPIQLEITEKRHGTLVWDTEVKPVDLQLVAASAPPPFSGAAFVKENHRQLQARMGDLKGVLDDLQDNEVLTENEKELVEQEKTRQSKNEALLSMVEKKGDLALDVLFRSISERDPYLVSYLRQQNL
Regarding B1, the binding result in assay [3] is recorded as “binds”.

B2: CARD8-T60 isoform (full-length) (natural protein)
chain: MEKKECPEKSSSSEEELPRRDSGSSRNIDASKLIRLQGSRKLLVDNSIRELQYTKTGIFFQAEACVTNDTVYRELPCVSETLCDISHFFQEDDETEAEPLLFRAVPECQLSGGDIPSVSEEQESSEGQDSGDICSEENQIVSSYASKVCFEIEEDYKNRQFLGPEGNVDVELIDKSTNRYSVWFPTAGWYLWSATGLGFLVRDEVTVTIAFGSWSQHLALDLQHHEQWLVGGPLFDVTAEPEEAVAEIHLPHFISLQAGEVDVSWFLVAHFKNEGMVLEHPARVEPFYAVLESPSFSLMGILLRIASGTRLSIPITSNTLIYYHPHPEDIKFHLYLVPSDALLTKAIDDEEDRFHGVRLQTSPPMEPLNFGSSYIVSNSANLKVMPKELKLSYRSPGEIQHFSKFYAGQMKEPIQLEITEKRHGTLVWDTEVKPVDLQLVAASAPPPFSGAAFVKENHRQLQARMGDLKGVLDDLQDNEVLTENEKELVEQEKTRQSKNEALLSMVEKKGDLALDVLFRSISERDPYLVSYLRQQNL
As to B2, the binding entry in assay [4] and in assay [5] was “binds” in each case.
